# No constants are given. Whether binding was seen depends on the method and setting. Binding can be weak; no strength is given. For some assays here: In cells and extracts the contact can be indirect.
# What was measured:
# [1] = molecular target: T1, PpiD-Strep, purified and reconstituted into proteoliposomes (E. coli) (UniProt P0ADY1); experiment: co-sedimentation; purified PpiD in proteoliposomes (70% POPE, 30% POPG) incubated with the purified complex at room temperature for 10 min, sedimented by centrifugation; empty liposomes as control; both purified
# T1 sequence: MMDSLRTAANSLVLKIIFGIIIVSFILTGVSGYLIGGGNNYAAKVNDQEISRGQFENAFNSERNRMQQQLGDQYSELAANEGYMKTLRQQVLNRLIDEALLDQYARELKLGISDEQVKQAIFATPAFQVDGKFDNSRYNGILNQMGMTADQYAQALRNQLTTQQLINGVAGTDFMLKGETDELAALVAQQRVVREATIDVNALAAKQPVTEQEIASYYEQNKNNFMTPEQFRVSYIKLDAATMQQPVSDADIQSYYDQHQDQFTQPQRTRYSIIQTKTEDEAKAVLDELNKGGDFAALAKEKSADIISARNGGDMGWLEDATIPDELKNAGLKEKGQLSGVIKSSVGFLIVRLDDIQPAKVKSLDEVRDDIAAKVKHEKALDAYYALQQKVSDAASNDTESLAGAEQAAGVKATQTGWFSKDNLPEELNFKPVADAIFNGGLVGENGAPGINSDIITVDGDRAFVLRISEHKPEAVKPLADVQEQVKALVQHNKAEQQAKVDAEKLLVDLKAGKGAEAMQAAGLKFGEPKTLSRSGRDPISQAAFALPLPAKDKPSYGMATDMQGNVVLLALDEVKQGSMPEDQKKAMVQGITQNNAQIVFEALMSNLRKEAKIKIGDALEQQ
# [2] = molecular target: T2, PpiD on E. coli spheroplasts (E. coli (endogenous in BL21 (DE3))) (UniProt P0ADY1); experiment: cross-linking; purified complex incubated with E. coli spheroplasts for 10 min with 0.5% formaldehyde at room temperature; affinity chromatography, SDS-PAGE, band of about 75 kDa analysed by MALDI; only the binder purified
# T2 sequence: T1 sequence
substance,measurement,setting,value
gp5Cβ–gp5.4 complex (tip fragment of the T4 central spike complex) (bacteriophage T4),binding,[1],binds weakly
same,binding,[2],binds

# Reference: article PMC7600766
